The values below come from patent US20090297501A1.

Where a chain is given by its changes, count along the chain named. No constants are given. Whether binding was seen depends on the method and setting. Some entries that bind do so weakly or less than the wild type.

Assay [1] concerns the target fusion protein of GST and MG10 (Gln213 to Ala231 in the amino acid sequence of human Mpl) (human) (UniProt P40238). The experiment in a line: Biacore on immobilised MG10-GST.
For assay [2] the target is unchanged. The experiment in a line: Biacore on immobilised MG10-GST (recalled in Example 2-4).
Assay [3] has the same target. Nature of the assay: affinity column with immobilised MG10-GST fusion protein.

B1: hVB22B u2-wz4 sc(Fv)2 peak 1 (bivalent scFv type structural isomer) (scFv)
chain: QVQLVQSGPEVKKPGASVKVSCKASGYTFTNSWMNWVRQRPGKGLEWIGRIYPGDGETIYNGKFRVRVTITADESTSTAYMQLSSLRSEDTAVYYCARGYDDYSFAYWGQGTTVTVSSGGGGSGGGGSGGGGSDIVMTQSPLSLPVTPGEPASISCRSSKSLLHSNGNTYLYWFLQKPGQSPQLLIYRMSNLASGVPDRFSGSGSGTDFTLKISRVEAEDVGVYYCMQHIEYPFTFGQGTKLEIKGGGGSGGGGSGGGGSQVQLVQSGPEVKKPGASVKVSCKASGYTFTNSWMNWVRQRPGKGLEWIGRIYPGDGETIYNGKFRVRVTITADESTSTAYMQLSSLRSEDTAVYYCARGYDDYSFAYWGQGTTVTVSSGGGGSGGGGSGGGGSDIVMTQSPLSLPVTPGEPASISCRSSKSLLHSNGNTYLYWFLQKPGQSPQLLIYRMSNLASGVPDRFSGSGSGTDFTLKISRVEAEDVGVYYCMQHIEYPFTFGQGTKLEIK
Turning to B1, the binding entry in assay [1] and in assay [2] was “binds” in each case.

B2: hVB22B u2-wz4 sc(Fv)2 peak 2 (single chain diabody type structural isomer) (scFv)
chain: B1 chain
For the molecule B2, the binding result in assay [1] and in assay [2] was “binds” throughout.

B3: modified hVB22B u2-wz4(v1) sc(Fv)2 (scFv)
chain: B1 chain with Q39E, Q176E, Q299K, Q436K
As for B3, in assay [3], the binding result was “binds”.

B4: modified hVB22B u2-wz4(v3) sc(Fv)2 (scFv)
chain: B1 chain with Q39E, Q176K, Q299K, Q436E
For the molecule B4, the binding result in assay [3] is recorded as “binds”.

B5: humanized anti-human Mpl antibody hVB22B u2-wz4 sc(Fv)2 (bulk, before separation of the structural isomers) (scFv)
chain: B1 chain
Turning to B5, the binding entry in assay [3] is “binds”.
